Reference: patent US20050152901A1
No constants are given. Whether binding was seen depends on the method and setting. Some binding calls cover weakened binding; strength is not graded here.

Chains of the proteins cited; added tags and fusions are not shown. Residues count along the entry.
UniProt P17181, residues 28-436: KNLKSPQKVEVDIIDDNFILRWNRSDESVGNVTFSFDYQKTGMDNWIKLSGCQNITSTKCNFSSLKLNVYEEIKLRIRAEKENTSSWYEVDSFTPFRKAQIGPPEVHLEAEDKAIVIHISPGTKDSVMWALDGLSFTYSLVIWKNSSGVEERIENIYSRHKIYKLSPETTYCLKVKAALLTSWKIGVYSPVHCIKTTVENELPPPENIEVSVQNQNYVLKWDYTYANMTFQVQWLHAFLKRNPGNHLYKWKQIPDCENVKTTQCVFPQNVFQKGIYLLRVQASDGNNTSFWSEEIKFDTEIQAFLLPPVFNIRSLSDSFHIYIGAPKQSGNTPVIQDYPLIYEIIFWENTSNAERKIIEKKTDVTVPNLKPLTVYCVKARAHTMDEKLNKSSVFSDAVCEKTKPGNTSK

Molecular target: IFNAR1 (IFNAR1 chain of the type 1 interferon receptor) (UniProt P17181)
Test: method not described

- binding: binds
B1: CPI-1697, humanized anti-IFNAR-1 antibody (heavy chain H3, light chain K1) (antibody, human IgG4, V domains shown)
VH: EVQLVESGGGLVQPGGSLRLSCAFSGFTLSTSGMGIGWVRQAPGKGLEWVAHWWDDDKYYNPSLKSRFTISRDTSKNTVYLQMNSLRAEDTAVYYCARNYYPYDAWFDYWGQGTLVTVS
VL: DIQMTQSPSSLSASVGDRVTITCSASSSINSNHLHWYQQKPGKAPKLLIYRTSILASGVPSRFSGSGSGTSFTLTISSLQPEDFATYYCQQGSNIPFTFGQGTKVEIKR
